PubChem BioAssay AID1224830, NIAID – 2016
Assay: 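Genes whose knock-down alters the TNF-alpha reporter response to LPS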 (primary screen). System: human THP-1 monocytic leukaemia cells, TNF dual-luciferase reporter clone, PMA-differentiated to macrophage-like cells. Reagent: siRNA pool against human genes, 50 nM. Time to read-out: LPS for 4 h, given about 3 days after siRNA transfection. Treatment: bacterial LPS (TLR4 ligand), 10 ng/ml. Measurement: 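TNF firefly reporter luminescence divided by renilla, normalised to the plate median, then turned into a robust z-score for each replicate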. Direction: TNF reporter robust z-score: higher = stronger TNF reporter response to LPS. Call rule: 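Each well counts as active if its z-score is over 2.8 or under -1.5; controls are left without a call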.
The deposit covers about 18,000 reagents; below is a random part of them. About 2,900 of all reagents (16%) count as active. 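Calls are made per well; low scores hint the gene aids the LPS response, high scores that it dampens it.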 Entries without a mark were called inactive. Repeated entries: four replicate wells of each siRNA pool.

no.	gene symbol	PubChem SID	TNF reporter robust z-score
1	MMP20	SID315453189	-0.08
2	MMP20	SID315453189	1.5
3	MMP20	SID315453189	0.31
4	MMP20	SID315453189	2.21
5	ENAM	SID315453832	0.25
6	ENAM	SID315453832	0.28
7	ENAM	SID315453832	0.1
8	ENAM	SID315453832	0.4
9	HIPK3	SID315453830	-1.43
10	HIPK3	SID315453830	-1.14
11	HIPK3	SID315453830	0.87
12	HIPK3	SID315453830	1.02
13	CBARP	SID315463478	0.82
14	CBARP	SID315463478	-0.1
15	CBARP	SID315463478	-0.76
16	CBARP	SID315463478	-0.72
17	PAK1	SID315450416	0.55
18	PAK1	SID315450416	0.65
19	PAK1	SID315450416	0.26
20	PAK1	SID315450416	0.21
21	CST8	SID315453774	2.05
22	CST8	SID315453774	0.2
23	CST8	SID315453774	0.37
24	CST8	SID315453774	0.25
25	CNIH3	SID315462405	-0.75
26	CNIH3	SID315462405	-0.45
27	CNIH3	SID315462405	-0.06
28	CNIH3	SID315462405	-0.09
29	DNAH9	SID315448338	0.36
30	DNAH9	SID315448338	0.11
31	DNAH9	SID315448338	-0.96
32	DNAH9	SID315448338	-0.68
33	CD226	SID315454282	-0.01
34	CD226	SID315454282	0.01
35	CD226	SID315454282	0.02
36	CD226	SID315454282	-1.41
37	PIGO	SID315460483	-0.3
38	PIGO	SID315460483	0.11
39	PIGO	SID315460483	1.13
40	PIGO	SID315460483	1.41
41	CDC14A	SID315452653	0.38
42	CDC14A	SID315452653	0.74
43	CDC14A	SID315452653	0.08
44	CDC14A	SID315452653	0.41
45	AZGP1	SID315447500	1.49
46	AZGP1	SID315447500	-0.46
47	AZGP1	SID315447500	-0.76
48	AZGP1	SID315447500	-1
49	OR5T2	SID315463168	0.87
50	OR5T2	SID315463168	1.35
51	OR5T2	SID315463168	0.78
52	OR5T2	SID315463168	0.68
53	DCAF6	SID315457889	1.22
54	DCAF6	SID315457889	-0.47
55	DCAF6	SID315457889	-0.34
56	DCAF6	SID315457889	0.87
57	PCDHA3	SID315458026	-1.15
58	PCDHA3	SID315458026	-1.18
59	PCDHA3	SID315458026	-2.23 (active)
60	PCDHA3	SID315458026	-1.87 (active)
61	MOSPD1	SID315458042	1.75
62	MOSPD1	SID315458042	0.51
63	MOSPD1	SID315458042	1.27
64	MOSPD1	SID315458042	1.41
65	POLR3D	SID315447571	-0.23
66	POLR3D	SID315447571	1.45
67	POLR3D	SID315447571	1.09
68	POLR3D	SID315447571	1.83
69	STRA6	SID315458871	-1.3
70	STRA6	SID315458871	-0.09
71	STRA6	SID315458871	-0.83
72	STRA6	SID315458871	0.39
73	DHFR	SID315448302	-0.31
74	DHFR	SID315448302	1.7
75	DHFR	SID315448302	1.13
76	DHFR	SID315448302	1.31
77	SLC35F3	SID315462387	-0.81
78	SLC35F3	SID315462387	-0.1
79	SLC35F3	SID315462387	-0.21
80	SLC35F3	SID315462387	-0.49
81	MESP2	SID315462260	0.53
82	MESP2	SID315462260	1.11
83	MESP2	SID315462260	1.46
84	MESP2	SID315462260	0.83
85	TRPT1	SID315460066	-1.28
86	TRPT1	SID315460066	-0.92
87	TRPT1	SID315460066	-1.57 (active)
88	TRPT1	SID315460066	-0.93
89	ABCC6	SID315447378	0.73
90	ABCC6	SID315447378	-0.33
91	ABCC6	SID315447378	-0.67
92	ABCC6	SID315447378	-0.94
93	RSAD1	SID315457588	1.71
94	RSAD1	SID315457588	2.78
95	RSAD1	SID315457588	0.98
96	RSAD1	SID315457588	1.87
97	SSTR5	SID315451658	-0.25
98	SSTR5	SID315451658	-0.17
99	SSTR5	SID315451658	-0.49
100	SSTR5	SID315451658	0.76
101	PIM2	SID315454554	0
102	PIM2	SID315454554	-0.06
103	PIM2	SID315454554	0.32
104	PIM2	SID315454554	0.78
105	STK3	SID315451684	0.59
106	STK3	SID315451684	0.12
107	STK3	SID315451684	-0.61
108	HEATR4	SID315464716	5.14 (active)
109	HEATR4	SID315464716	5.06 (active)
110	HEATR4	SID315464716	3.59 (active)
111	HEATR4	SID315464716	4.91 (active)

7 of these entries, set out differently.
{"gene symbol": "OR5T2", "PubChem SID": "SID315463168", "TNF reporter robust z-score": 0.78}
{"gene symbol": "OR5T2", "PubChem SID": "SID315463168", "TNF reporter robust z-score": 0.68}
{"gene symbol": "DCAF6", "PubChem SID": "SID315457889", "TNF reporter robust z-score": 1.22}
{"gene symbol": "DCAF6", "PubChem SID": "SID315457889", "TNF reporter robust z-score": -0.47}
{"gene symbol": "DCAF6", "PubChem SID": "SID315457889", "TNF reporter robust z-score": -0.34}
{"gene symbol": "DCAF6", "PubChem SID": "SID315457889", "TNF reporter robust z-score": 0.87}
{"gene symbol": "PCDHA3", "PubChem SID": "SID315458026", "TNF reporter robust z-score": -1.15}
